Data: PMC10065074
No constants are given. Whether binding was seen depends on the method and setting. In cells and extracts the contact can be indirect. These calls come from enrichment with a bait or labelling near it, and not all partners need be listed.

The chains behind the UniProt entries cited, without tags or fusion partners. Where a name states a change or a piece, a line headed by the entry shows the natural chain unless it says otherwise. Residues count along the entry.
UniProt Q9BTU6: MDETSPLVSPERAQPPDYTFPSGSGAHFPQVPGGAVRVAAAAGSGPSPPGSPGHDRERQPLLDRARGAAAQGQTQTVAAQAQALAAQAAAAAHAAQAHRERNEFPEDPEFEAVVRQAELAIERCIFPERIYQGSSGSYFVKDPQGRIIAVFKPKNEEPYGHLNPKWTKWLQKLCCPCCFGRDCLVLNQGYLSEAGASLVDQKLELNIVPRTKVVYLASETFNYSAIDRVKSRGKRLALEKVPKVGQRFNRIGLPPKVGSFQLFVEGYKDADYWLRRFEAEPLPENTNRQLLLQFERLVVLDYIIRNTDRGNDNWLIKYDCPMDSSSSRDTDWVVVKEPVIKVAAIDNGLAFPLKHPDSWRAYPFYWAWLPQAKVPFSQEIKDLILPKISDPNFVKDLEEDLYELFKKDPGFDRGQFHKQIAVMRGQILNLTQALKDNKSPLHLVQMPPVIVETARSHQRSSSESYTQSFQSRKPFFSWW
UniProt P30530, residues 26-894: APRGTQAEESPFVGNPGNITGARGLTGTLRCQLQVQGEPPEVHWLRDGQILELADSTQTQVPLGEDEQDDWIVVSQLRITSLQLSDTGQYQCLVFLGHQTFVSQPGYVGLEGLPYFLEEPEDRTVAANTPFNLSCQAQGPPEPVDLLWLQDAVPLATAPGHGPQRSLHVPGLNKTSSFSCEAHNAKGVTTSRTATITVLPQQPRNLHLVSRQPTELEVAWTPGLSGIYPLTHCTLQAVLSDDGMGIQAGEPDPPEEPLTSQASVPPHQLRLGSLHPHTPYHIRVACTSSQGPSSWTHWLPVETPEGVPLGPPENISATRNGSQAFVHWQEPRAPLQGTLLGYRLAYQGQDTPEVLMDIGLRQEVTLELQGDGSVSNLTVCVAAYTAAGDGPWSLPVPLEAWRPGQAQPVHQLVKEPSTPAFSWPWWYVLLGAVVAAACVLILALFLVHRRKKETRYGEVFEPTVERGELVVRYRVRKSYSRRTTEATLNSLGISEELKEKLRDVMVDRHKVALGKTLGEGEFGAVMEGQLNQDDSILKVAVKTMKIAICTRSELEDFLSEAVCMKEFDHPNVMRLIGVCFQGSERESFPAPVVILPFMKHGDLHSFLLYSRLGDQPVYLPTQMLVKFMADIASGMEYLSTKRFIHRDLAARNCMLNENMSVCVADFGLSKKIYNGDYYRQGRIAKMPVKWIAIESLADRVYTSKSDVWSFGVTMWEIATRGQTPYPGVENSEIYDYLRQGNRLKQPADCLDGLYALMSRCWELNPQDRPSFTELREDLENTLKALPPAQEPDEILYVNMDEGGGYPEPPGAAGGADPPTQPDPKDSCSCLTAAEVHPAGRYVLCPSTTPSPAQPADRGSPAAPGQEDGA
UniProt P16070, residues 21-742: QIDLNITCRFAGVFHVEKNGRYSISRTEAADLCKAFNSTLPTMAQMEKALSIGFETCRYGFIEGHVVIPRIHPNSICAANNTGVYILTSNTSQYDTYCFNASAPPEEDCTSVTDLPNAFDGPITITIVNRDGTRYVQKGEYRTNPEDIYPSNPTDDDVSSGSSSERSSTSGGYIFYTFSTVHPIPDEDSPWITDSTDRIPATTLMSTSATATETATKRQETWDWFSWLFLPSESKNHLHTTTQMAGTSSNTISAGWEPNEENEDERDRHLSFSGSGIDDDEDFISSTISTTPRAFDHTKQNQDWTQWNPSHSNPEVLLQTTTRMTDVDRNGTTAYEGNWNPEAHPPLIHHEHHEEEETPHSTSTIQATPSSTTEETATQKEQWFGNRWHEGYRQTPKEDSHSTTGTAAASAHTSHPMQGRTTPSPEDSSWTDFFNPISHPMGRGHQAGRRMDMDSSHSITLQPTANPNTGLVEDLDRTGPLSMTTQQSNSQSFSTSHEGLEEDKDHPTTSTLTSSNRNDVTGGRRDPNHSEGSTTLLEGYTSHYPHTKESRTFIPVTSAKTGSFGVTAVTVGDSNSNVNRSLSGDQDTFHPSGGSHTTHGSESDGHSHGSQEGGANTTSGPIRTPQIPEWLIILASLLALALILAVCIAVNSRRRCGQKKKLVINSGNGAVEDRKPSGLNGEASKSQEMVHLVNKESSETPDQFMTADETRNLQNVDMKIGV
UniProt P05556: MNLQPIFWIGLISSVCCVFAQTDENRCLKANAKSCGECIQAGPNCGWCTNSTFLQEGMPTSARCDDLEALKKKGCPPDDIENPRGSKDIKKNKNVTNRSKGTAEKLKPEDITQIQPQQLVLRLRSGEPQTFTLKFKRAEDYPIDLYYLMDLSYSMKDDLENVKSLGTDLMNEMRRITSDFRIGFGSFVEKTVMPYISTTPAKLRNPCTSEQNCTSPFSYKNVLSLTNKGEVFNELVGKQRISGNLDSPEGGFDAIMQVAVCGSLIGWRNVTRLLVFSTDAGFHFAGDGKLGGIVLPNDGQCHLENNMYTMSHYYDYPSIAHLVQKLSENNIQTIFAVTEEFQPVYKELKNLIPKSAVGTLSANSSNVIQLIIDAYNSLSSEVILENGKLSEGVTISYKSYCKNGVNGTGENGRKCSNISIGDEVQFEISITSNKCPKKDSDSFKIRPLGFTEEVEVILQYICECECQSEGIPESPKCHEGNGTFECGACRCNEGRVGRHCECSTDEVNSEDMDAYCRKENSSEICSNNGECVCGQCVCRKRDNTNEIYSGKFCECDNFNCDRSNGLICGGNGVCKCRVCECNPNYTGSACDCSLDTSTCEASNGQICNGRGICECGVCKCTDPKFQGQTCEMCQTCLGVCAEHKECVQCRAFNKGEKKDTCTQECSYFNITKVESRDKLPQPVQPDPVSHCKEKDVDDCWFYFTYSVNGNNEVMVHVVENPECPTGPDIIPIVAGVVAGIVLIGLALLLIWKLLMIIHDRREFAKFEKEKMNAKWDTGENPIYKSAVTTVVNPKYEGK
UniProt P35579: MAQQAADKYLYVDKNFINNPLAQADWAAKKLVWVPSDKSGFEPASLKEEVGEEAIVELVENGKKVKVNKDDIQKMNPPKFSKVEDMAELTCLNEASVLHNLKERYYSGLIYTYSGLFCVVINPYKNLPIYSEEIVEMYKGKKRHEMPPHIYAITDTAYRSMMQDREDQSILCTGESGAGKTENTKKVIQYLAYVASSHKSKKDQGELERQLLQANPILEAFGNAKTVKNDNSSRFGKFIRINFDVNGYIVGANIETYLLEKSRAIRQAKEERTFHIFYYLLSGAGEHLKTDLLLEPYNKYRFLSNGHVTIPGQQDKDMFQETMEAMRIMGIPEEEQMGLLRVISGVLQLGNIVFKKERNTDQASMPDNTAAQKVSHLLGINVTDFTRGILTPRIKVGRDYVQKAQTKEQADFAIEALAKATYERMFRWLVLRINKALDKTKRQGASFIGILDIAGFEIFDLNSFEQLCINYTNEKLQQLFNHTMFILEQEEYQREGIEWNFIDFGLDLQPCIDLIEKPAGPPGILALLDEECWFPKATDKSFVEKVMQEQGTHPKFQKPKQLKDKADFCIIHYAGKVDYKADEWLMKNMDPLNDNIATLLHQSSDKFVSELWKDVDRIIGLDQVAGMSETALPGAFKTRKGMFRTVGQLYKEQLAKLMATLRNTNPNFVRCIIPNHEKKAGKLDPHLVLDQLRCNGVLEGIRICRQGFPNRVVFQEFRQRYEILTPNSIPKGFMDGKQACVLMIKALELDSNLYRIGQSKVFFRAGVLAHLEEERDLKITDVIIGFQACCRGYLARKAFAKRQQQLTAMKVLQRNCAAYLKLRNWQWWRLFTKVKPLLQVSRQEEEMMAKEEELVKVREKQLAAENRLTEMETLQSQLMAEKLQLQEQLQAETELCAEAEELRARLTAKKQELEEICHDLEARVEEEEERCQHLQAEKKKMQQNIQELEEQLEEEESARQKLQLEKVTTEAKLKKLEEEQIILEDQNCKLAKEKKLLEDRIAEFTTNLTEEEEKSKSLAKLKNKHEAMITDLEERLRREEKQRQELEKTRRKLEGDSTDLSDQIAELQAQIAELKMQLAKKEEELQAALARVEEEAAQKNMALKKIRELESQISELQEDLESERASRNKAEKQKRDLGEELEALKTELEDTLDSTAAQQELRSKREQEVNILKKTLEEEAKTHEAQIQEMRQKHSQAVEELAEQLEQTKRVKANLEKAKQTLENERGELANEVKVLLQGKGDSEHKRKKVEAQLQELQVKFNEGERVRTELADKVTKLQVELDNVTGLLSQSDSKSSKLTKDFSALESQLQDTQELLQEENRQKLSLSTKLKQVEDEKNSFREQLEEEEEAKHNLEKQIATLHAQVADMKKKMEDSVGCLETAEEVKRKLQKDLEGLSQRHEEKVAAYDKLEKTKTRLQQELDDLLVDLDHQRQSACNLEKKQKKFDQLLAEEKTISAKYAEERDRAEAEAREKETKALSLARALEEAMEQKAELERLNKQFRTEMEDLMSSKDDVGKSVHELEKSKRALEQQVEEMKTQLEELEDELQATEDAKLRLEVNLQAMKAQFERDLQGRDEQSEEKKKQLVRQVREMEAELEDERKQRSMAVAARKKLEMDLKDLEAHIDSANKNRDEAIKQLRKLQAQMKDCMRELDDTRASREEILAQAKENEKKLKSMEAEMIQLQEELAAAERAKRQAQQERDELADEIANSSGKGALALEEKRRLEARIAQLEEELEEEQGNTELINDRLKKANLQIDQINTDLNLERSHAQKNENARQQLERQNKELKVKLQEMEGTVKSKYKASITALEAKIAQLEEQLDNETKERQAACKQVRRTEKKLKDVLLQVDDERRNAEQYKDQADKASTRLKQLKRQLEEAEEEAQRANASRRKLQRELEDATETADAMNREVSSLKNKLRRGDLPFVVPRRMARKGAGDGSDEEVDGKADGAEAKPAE

How the values were obtained:
[1] = target: PI4K2A/TurboID fusion construct (UniProt Q9BTU6); test: proximity labelling; TurboID-PI4K2A transfected into H1299 cells, with or without 100 μM biotin for 1 hour; biotinylated proteins purified on streptavidin agarose beads; LC-MS
[2] = target: PI4K2A/TurboID fusion construct (UniProt Q9BTU6); test: proximity labelling; H1299 cells transfected with the PI4K2A/TurboID construct and treated with biotin; streptavidin bead-enriched samples; WB
[3] = target: hemagglutinin-tagged (HA-tagged) PI4K2A (human) (UniProt Q9BTU6); test: affinity purification with mass spectrometry; HA-PI4K2A stably expressed in PI4K2A-deficient H1299 cells; lysates immunoprecipitated by HA-tag antibody, isolated on Protein G beads; LC-MS

binding [1] | binding [2] | binding [3] | Substance
binds |  |  | AXL receptor tyrosine kinase (from UniProt P30530 26-894)
binds | binds |  | CD44 molecule (from UniProt P16070 21-742) (receptor)
binds | binds |  | integrin-β1 (from UniProt P05556 21-798) (receptor)
binds |  | binds | myosin heavy chain 9 (from UniProt P35579 1-1960)
